Measurements reported in PubChem BioAssay AID1259425 (University of Nebraska Medical Center, 2018)

- Test: 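Compare each knockdown with KSR1 silencing using changes in marker transcripts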 (primary screen)
- Cell system: HCT116 human colon cancer cells
- Reagent: siRNA pool against human genes, 50 nM siRNA
- Read-out: 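mRNA of six signature genes measured together by branched-DNA assay after 50 nM siRNA pool, blank removed, divided by geometric mean of two housekeeping genes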
- Direction: BNIP3L mRNA: higher = more BNIP3L transcript after knockdown; NDRG1 mRNA: higher = more NDRG1 transcript after knockdown
The whole screen tested about 14,000 reagents; below is an unselected part. Not all columns of the deposit are shown. Reagent sequences are not shown. Not given: the time to read-out.

After knock-down of TLR1 the results were BNIP3L mRNA, set 1 = 0.0819; NDRG1 mRNA, set 1 = 0.0948. Against MDFI the deposit lists BNIP3L mRNA, set 1 = 0.134; NDRG1 mRNA, set 1 = 0.244. UGT2B4 scored BNIP3L mRNA, set 1 = 0.0802; NDRG1 mRNA, set 1 = 0.111. For NIPAL2, the values are BNIP3L mRNA, set 1 = 0.142; NDRG1 mRNA, set 1 = 0.297. With knock-down of TRIM34, the record shows BNIP3L mRNA, set 1 = 0.124; NDRG1 mRNA, set 1 = 0.347. APPBP2 scored BNIP3L mRNA, set 1 = 0.0961; NDRG1 mRNA, set 1 = 0.165.

Depletion of PLK2 gave: BNIP3L mRNA, set 1 = 0.132; NDRG1 mRNA, set 1 = 0.264. Depletion of ZCCHC7 gave: BNIP3L mRNA, set 1 = 0.179; NDRG1 mRNA, set 1 = 0.191. Against CSMD1, the values are BNIP3L mRNA, set 1 = 0.0732; NDRG1 mRNA, set 1 = 0.313. Silencing of GRB7 gave: BNIP3L mRNA, set 1 = 0.182; NDRG1 mRNA, set 1 = 0.223. Against TPM2, the entry reads BNIP3L mRNA, set 1 = 0.15; NDRG1 mRNA, set 1 = 0.106. Knock-down of ZMYND12 gave: BNIP3L mRNA, set 1 = 0.103; NDRG1 mRNA, set 1 = 0.184.

After knock-down of NHSL3 the results were BNIP3L mRNA, set 1 = 0.112; NDRG1 mRNA, set 1 = 0.36. CS gave BNIP3L mRNA, set 1 = 0.117; NDRG1 mRNA, set 1 = 0.0961. Depletion of BBS9 came out at: BNIP3L mRNA, set 1 = 0.215; NDRG1 mRNA, set 1 = 0.166. Knock-down of INPP5B resulted in: BNIP3L mRNA, set 1 = 0.0528; NDRG1 mRNA, set 1 = 0.339. After knock-down of CHPF, the screen gave BNIP3L mRNA, set 1 = 0.3; NDRG1 mRNA, set 1 = 0.545. ASB2 scored BNIP3L mRNA, set 1 = 0.0682; NDRG1 mRNA, set 1 = 0.113.

Against RSU1, the entry reads BNIP3L mRNA, set 1 = 0.136; NDRG1 mRNA, set 1 = 0.159. JUP gave BNIP3L mRNA, set 1 = 0.0678; NDRG1 mRNA, set 1 = 0.072. Depletion of NR2E3 came out at: BNIP3L mRNA, set 1 = 0.0734; NDRG1 mRNA, set 1 = 0.268. For PPM1J the deposit lists BNIP3L mRNA, set 1 = 0.0784; NDRG1 mRNA, set 1 = 0.0579. Depletion of PLD2 came out at: BNIP3L mRNA, set 1 = 0.258; NDRG1 mRNA, set 1 = 1.51. Knock-down of TSPAN10 gave: BNIP3L mRNA, set 1 = 0.244; NDRG1 mRNA, set 1 = 0.45.

After knock-down of LATS1, the record shows BNIP3L mRNA, set 1 = 0.0525; NDRG1 mRNA, set 1 = 0.0231. Against C9orf40, the values are BNIP3L mRNA, set 1 = 0.0747; NDRG1 mRNA, set 1 = 0.212. With knock-down of SRSF8, the screen gave BNIP3L mRNA, set 1 = 0.137; NDRG1 mRNA, set 1 = 0.265. With knock-down of STX1A the results were BNIP3L mRNA, set 1 = 0.0407; NDRG1 mRNA, set 1 = 0.236.

Records above whose target name begins with C or c (4):
CSMD1 → BNIP3L mRNA, set 1: 0.0732; NDRG1 mRNA, set 1: 0.313
CS → BNIP3L mRNA, set 1: 0.117; NDRG1 mRNA, set 1: 0.0961
CHPF → BNIP3L mRNA, set 1: 0.3; NDRG1 mRNA, set 1: 0.545
C9orf40 → BNIP3L mRNA, set 1: 0.0747; NDRG1 mRNA, set 1: 0.212
